Measurements: article doi:10.1101/751974
Read-outs that look alike come from different tables or passages of the source. Results are given in words; binding and its absence hold for the method and conditions named. In cells and extracts the contact can be indirect. Here binding means that the protein was enriched with, or labelled near, the bait; the list need not be complete. For some assays here: Tags and fused reporters may be left off the sequences shown.

The chains behind the UniProt entries cited, without tags or fusion partners.
UniProt P27694: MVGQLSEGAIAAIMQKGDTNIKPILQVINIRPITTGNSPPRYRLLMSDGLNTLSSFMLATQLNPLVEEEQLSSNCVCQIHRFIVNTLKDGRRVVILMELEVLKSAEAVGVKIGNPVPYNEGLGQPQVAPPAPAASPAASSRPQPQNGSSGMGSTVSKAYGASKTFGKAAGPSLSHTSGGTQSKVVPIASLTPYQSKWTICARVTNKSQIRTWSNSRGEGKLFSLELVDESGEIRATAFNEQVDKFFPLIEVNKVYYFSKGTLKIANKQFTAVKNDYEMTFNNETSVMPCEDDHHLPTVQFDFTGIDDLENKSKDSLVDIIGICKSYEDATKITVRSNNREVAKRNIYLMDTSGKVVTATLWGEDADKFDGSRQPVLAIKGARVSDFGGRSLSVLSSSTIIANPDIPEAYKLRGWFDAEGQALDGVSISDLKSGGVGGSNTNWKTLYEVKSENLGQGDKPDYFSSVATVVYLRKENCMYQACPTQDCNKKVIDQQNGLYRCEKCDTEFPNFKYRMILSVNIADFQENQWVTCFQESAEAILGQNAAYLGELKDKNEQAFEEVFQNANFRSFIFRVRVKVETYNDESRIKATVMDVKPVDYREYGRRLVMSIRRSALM

B1: SMARCAL1, endogenous (protein, UniProt Q9NZC9 1-954)
chain: MSLPLTEEQRKKIEENRQKALARRAEKLLAEQHQRTSSGTSIAGNPFQAKQGPSQNFPRESCKPVSHGVIFKQQNLSSSSNADQRPHDSHSFQAKGIWKKPEEMPTACPGHSPRSQMALTGISPPLAQSPPEVPKQQLLSYELGQGHAQASPEIRFTPFANPTHKPLAKPKSSQETPAHSSGQPPRDAKLEAKTAKASPSGQNISYIHSSSESVTPRTEGRLQQKSGSSVQKGVNSQKGKCVRNGDRFQVLIGYNAELIAVFKTLPSKNYDPDTKTWNFSMNDYSALMKAAQSLPTVNLQPLEWAYGSSESPSTSSEGQAGLPSAPSLSFVKGRCMLISRAYFEADISYSQDLIALFKQMDSRRYDVKTRKWSFLLEEHSKLIAKVRCLPQVQLDPLPTTLTLAFASQLKKTSLSLTPDVPEADLSEVDPKLVSNLMPFQRAGVNFAIAKGGRLLLADDMGLGKTIQAICIAAFYRKEWPLLVVVPSSVRFTWEQAFLRWLPSLSPDCINVVVTGKDRLTAGLINIVSFDLLSKLEKQLKTPFKVVIIDESHFLKNSRTARCRAAMPVLKVAKRVILLSGTPAMSRPAELYTQIIAVKPTFFPQFHAFGLRYCDAKRMPWGWDYSGSSNLGELKLLLEEAVMLRRLKSDVLSQLPAKQRKIVVIAPGRINARTRAALDAAAKEMTTKDKTKQQQKDALILFFNRTAEAKIPSVIEYILDLLESGREKFLVFAHHKVVLDAITQELERKHVQHIRIDGSTSSAEREDLCQQFQLSERHAVAVLSITAANMGLTFSSADLVVFAELFWNPGVLIQAEDRVHRIGQTSSVGIHYLVAKGTADDYLWPLIQEKIKVLAEAGLSETNFSEMTESTDYLYKDPKQQKIYDLFQKSFEKEGSDMELLEAAESFDPGSASGTSGSSSQNMGDTLDESSLTASPQKKRRFEFFDNWDSFTSPL
B2: MCM8IP, endogenous (protein, UniProt Q8N3J3-4 1-646)
chain: MACSLQKLFAVEEEFEDEDFLSAVEDAENRFTGSLPVNAGRLRPVSSRPQETVQAQSSRLLLLHPTAPSEALGLPDLDLCLPASSTPSADSRPSCIGAAPLRPVSTSSSWIGNQRRVTVTEVLRETARPQSSALHPLLTFESQQQQVGGFEGPEQDEFDKVLASMELEEPGMELECGVSSEAIPILPAQQREGSVLAKKARVVDLSGSCQKGPVPAIHKAGIMSAQDESLDPVIQCRTPRPPLRPGAVGHLPVPTALTVPTQQLHWEVCPQRSPVQALQPLQAARGTIQSSPQNRFPCQPFQSPSSWLSGKAHLPRPRTPNSSCSTPSRTSSGLFPRIPLQPQAPVSSIGSPVGTPKGPQGALQTPIVTNHLVQLVTAASRTPQQPTHPSTRAKTRRFPGPAGILPHQQSGRSLEDIMVSAPQTPTHGALAKFQTEIVASSQASVEEDFGRGPWLTMKSTLGLDERDPSCFLCTYSIVMVLRKAALKQLPRNKVPNMAVMIKSLTRSTMDASVVFKDPTGEMQGTVHRLLLETCQNELKPGSVLLLKQIGVFSPSLRNHYLNVTPNNLVHIYSPDSGDGSFLKPSQPFPKDSGSFQHDVAAKPEEGFRTAQNLEAEASPEEELPEADDLDGLLSELPEDFFCGTSS

Legend:
BirA*-MCM8IP (human) = target: T1, BirA*-MCM8IP (human) (UniProt Q8N3J3); assay: proximity labelling
T1 sequence: B2 chain

MCM8IP-BirA* (human) = target: T2, MCM8IP-BirA* (human) (UniProt Q8N3J3); assay: proximity labelling
T2 sequence: B2 chain

MCM8IP-HA (human) = target: T3, MCM8IP-HA (human) (UniProt Q8N3J3); assay: affinity purification with mass spectrometry
T3 sequence: B2 chain

BirA*-RPA1 [1] = target: BirA*-RPA1 (UniProt P27694); assay: proximity labelling
BirA*-RPA1 [2] = target: BirA*-RPA1 (UniProt P27694); assay: proximity labelling; remark: listed apart in the source

Row | Binder | binding (BirA*-MCM8IP (human)) | binding (MCM8IP-BirA* (human)) | binding (MCM8IP-HA (human)) | binding (BirA*-RPA1 [1]) | binding (BirA*-RPA1 [2])
1 | B1 | binds | binds | binds | – | –
2 | B2 | – | – | – | binds | binds
